Reference: article PMC12170339, “Cryo-EM structure of the NDH–PSI–LHCI supercomplex from Spinacia oleracea” (Nature Structural & Molecular Biology, 2025)

Columns and labels:
Test in all cases: cryo-EM structure; single-particle cryo-EM of the endogenous NDH–PSI–LHCI-2 supercomplex co-purified from spinach stromal lamellae in t-PCCαM; buffer A: 30 mM HEPES pH 7.8, 2 mM MgCl2, 2 mM KCl, 0.5 mM Na2-EDTA, 100 mM NaCl, 2 mM DTT, 0.04% t-PCCαM; 38,385 particles; 3.0–3.3 Å; both purified
[1] = target: T1, NdhK (S. oleracea, UniProt Q9M3M0 1-227)
T1 construct: NdhK, SubA module of chloroplast NDH, S. oleracea; source: purified from spinach (S. oleracea) leaves as part of the NDH–PSI–LHCI-2 supercomplex
T1 sequence (looked up): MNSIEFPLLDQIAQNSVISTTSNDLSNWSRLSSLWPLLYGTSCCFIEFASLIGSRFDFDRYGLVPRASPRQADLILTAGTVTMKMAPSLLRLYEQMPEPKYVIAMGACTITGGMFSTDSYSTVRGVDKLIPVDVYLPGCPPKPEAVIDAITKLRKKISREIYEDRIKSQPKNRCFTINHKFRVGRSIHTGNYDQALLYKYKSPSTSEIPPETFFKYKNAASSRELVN

[2] = target: T2, NdhH (S. oleracea, UniProt Q9M3I5 1-393)
T2 construct: NdhH, SubA module of chloroplast NDH, S. oleracea; source: purified from spinach (S. oleracea) leaves as part of the NDH–PSI–LHCI-2 supercomplex
T2 sequence (looked up): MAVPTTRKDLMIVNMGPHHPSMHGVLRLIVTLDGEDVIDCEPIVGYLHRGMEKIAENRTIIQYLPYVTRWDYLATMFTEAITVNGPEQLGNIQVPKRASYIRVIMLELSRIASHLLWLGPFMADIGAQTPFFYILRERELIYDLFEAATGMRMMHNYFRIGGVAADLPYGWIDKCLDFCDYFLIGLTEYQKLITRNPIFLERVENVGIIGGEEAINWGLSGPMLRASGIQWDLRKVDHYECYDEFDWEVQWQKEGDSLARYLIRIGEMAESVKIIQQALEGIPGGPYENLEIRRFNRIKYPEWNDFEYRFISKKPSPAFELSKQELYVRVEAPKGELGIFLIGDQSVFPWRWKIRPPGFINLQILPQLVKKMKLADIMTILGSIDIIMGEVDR

[3] = target: T3, NdhI (S. oleracea) (UniProt Q9M3I7)
T3 sequence: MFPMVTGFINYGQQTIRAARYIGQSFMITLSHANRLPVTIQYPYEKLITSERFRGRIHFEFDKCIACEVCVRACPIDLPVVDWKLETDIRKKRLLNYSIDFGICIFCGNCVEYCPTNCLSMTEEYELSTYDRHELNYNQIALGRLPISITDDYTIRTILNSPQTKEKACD

[4] = target: T4, NdhJ (S. oleracea) (UniProt Q9M3M1)
T4 sequence: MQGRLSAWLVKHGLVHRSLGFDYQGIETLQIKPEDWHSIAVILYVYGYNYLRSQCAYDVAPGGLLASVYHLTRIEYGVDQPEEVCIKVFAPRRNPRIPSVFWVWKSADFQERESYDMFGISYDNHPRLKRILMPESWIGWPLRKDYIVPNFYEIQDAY

[5] = target: T5, NdhD (S. oleracea) (UniProt Q9M3J0)
T5 sequence: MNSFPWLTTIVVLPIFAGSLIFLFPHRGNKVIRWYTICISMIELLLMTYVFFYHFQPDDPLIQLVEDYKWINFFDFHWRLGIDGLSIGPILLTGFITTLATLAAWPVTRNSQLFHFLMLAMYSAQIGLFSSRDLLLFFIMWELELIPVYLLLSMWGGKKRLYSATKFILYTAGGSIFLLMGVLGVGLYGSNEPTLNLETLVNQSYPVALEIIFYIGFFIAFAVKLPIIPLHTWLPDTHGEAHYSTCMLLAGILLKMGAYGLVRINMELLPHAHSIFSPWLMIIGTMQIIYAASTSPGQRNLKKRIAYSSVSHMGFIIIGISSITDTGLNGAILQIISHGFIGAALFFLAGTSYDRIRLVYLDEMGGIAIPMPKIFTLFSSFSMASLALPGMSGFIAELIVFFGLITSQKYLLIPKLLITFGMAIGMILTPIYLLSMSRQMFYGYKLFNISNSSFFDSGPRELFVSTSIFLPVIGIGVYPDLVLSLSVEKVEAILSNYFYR

[6] = target: T6, NdhB (S. oleracea)
T6 sequence: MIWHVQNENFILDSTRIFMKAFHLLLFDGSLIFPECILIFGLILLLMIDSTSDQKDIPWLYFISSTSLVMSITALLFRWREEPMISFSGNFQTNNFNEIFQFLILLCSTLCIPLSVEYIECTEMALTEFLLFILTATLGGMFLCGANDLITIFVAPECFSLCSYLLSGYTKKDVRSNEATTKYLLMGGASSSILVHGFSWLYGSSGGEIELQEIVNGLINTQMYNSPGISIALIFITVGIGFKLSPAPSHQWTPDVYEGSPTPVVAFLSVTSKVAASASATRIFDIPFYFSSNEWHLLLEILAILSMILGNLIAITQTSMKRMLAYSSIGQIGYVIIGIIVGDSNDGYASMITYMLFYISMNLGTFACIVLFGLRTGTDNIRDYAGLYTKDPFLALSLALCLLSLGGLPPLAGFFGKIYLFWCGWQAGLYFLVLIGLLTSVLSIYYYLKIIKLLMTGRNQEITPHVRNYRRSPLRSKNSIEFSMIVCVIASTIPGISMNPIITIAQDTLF

| binding [1] | binding [2] | binding [3] | binding [4] | binding [5] | binding [6] | Substance |
| --- | --- | --- | --- | --- | --- | --- |
| binds | binds | binds | binds | – | – | NdhU (S. oleracea) |
| – | binds | – | – | binds | binds | PnsB1 (S. oleracea) |
| – | – | – | – | binds | – | PnsB5 (S. oleracea) |

No constants are given. Whether binding was seen depends on the method and setting. In cells and extracts the contact can be indirect. A result given as binding can be weak or reduced; the word gives no strength.
